Source: patent publication US20170045513A1, “METHODS OF DIAGNOSING CELIAC DISEASE USING IP-10” (ImmusanT, Inc., priority 2014, published 2017)
Some results were stated once for a whole list of compounds, not compound by compound. Non-standard residues stand in square brackets, D forms with d. pGlu = O=C1CC[C@@H](C(=O)O)N1

Test system: gluten-reactive T cells
Experiment: Cytokine release assays taken together (IFNγ ELISpot, whole blood IFNγ and IP-10, in-tube IFNγ ELISA)
Format: cell-based, human
Details: blood collected after oral gluten challenge
Experimental: Gluten peptide solutions for addition to whole blood were arranged according to standardized templates in sterile 96-well U-bottom plates (30 μL/well). Plates were sealed with adhesive ELISA plate cover slips before the plastic lid was replaced and being frozen at −80° C. Whole blood assay (WBA) “medium” (1% DMSO in 90% PBS and 9% normal saline), mitogen (PHA-L, Sigma-Aldrich #L2769; St Louis Mo.) 100 μg/ml in WBA medium, and CEF diluted to 10 μg/ml in PBS with a final concentration of 1% DMSO were frozen separately in sterile cryovials. 96-well plates and cryovials with frozen incubation solutions were shipped on dry ice to the clinical site where blood was collected and incubations performed. […] Final concentrations of individual peptides assessed in P3 was 0.05-50 μg/mL, and in P14 and P13 pools 0.025-25 μM. […] Peptide pools, mitogen, and medium only were assessed in triplicate wells, and on Day-6 individual peptides were assessed in duplicate wells. […] Plasmas were frozen at −80° C. and later shipped on dry ice to the central lab where IP-10 and IFNγ multiplex bead assays were performed according to manufacturer's instructions using 25 μL plasma per well (Milliplex® MAP Human Cytokine/Chemokine Magnetic Bead Panel #HCYTOMAG-60k-02; EMD Millipore Corp., Billerica, Mass. 01821) and analysed with the Luminex® MAGPIX® System xPONENT® software (Luminex Corporation, Austin Tex. 78727). […]

Row | Substance | cytokine release as percent of that to Peptide 14, on average
1 | [pGlu]QPFPEQPEQIIPQQP-NH2 [Peptide 12] | no more than 10%
2 | [pGlu]QPFPQPEQPFSQQ-NH2 [Peptide 7] | no more than 10%
